Measurements reported in article doi:10.1101/2021.08.20.456807.
These are yes or no findings as the source states them, for the method shown. Binding seen in cells or lysates may run through a third protein. Binding can be weak; no strength is given.

Chains of the proteins cited; added tags and fusions are not shown.
UniProt Q9NZJ4: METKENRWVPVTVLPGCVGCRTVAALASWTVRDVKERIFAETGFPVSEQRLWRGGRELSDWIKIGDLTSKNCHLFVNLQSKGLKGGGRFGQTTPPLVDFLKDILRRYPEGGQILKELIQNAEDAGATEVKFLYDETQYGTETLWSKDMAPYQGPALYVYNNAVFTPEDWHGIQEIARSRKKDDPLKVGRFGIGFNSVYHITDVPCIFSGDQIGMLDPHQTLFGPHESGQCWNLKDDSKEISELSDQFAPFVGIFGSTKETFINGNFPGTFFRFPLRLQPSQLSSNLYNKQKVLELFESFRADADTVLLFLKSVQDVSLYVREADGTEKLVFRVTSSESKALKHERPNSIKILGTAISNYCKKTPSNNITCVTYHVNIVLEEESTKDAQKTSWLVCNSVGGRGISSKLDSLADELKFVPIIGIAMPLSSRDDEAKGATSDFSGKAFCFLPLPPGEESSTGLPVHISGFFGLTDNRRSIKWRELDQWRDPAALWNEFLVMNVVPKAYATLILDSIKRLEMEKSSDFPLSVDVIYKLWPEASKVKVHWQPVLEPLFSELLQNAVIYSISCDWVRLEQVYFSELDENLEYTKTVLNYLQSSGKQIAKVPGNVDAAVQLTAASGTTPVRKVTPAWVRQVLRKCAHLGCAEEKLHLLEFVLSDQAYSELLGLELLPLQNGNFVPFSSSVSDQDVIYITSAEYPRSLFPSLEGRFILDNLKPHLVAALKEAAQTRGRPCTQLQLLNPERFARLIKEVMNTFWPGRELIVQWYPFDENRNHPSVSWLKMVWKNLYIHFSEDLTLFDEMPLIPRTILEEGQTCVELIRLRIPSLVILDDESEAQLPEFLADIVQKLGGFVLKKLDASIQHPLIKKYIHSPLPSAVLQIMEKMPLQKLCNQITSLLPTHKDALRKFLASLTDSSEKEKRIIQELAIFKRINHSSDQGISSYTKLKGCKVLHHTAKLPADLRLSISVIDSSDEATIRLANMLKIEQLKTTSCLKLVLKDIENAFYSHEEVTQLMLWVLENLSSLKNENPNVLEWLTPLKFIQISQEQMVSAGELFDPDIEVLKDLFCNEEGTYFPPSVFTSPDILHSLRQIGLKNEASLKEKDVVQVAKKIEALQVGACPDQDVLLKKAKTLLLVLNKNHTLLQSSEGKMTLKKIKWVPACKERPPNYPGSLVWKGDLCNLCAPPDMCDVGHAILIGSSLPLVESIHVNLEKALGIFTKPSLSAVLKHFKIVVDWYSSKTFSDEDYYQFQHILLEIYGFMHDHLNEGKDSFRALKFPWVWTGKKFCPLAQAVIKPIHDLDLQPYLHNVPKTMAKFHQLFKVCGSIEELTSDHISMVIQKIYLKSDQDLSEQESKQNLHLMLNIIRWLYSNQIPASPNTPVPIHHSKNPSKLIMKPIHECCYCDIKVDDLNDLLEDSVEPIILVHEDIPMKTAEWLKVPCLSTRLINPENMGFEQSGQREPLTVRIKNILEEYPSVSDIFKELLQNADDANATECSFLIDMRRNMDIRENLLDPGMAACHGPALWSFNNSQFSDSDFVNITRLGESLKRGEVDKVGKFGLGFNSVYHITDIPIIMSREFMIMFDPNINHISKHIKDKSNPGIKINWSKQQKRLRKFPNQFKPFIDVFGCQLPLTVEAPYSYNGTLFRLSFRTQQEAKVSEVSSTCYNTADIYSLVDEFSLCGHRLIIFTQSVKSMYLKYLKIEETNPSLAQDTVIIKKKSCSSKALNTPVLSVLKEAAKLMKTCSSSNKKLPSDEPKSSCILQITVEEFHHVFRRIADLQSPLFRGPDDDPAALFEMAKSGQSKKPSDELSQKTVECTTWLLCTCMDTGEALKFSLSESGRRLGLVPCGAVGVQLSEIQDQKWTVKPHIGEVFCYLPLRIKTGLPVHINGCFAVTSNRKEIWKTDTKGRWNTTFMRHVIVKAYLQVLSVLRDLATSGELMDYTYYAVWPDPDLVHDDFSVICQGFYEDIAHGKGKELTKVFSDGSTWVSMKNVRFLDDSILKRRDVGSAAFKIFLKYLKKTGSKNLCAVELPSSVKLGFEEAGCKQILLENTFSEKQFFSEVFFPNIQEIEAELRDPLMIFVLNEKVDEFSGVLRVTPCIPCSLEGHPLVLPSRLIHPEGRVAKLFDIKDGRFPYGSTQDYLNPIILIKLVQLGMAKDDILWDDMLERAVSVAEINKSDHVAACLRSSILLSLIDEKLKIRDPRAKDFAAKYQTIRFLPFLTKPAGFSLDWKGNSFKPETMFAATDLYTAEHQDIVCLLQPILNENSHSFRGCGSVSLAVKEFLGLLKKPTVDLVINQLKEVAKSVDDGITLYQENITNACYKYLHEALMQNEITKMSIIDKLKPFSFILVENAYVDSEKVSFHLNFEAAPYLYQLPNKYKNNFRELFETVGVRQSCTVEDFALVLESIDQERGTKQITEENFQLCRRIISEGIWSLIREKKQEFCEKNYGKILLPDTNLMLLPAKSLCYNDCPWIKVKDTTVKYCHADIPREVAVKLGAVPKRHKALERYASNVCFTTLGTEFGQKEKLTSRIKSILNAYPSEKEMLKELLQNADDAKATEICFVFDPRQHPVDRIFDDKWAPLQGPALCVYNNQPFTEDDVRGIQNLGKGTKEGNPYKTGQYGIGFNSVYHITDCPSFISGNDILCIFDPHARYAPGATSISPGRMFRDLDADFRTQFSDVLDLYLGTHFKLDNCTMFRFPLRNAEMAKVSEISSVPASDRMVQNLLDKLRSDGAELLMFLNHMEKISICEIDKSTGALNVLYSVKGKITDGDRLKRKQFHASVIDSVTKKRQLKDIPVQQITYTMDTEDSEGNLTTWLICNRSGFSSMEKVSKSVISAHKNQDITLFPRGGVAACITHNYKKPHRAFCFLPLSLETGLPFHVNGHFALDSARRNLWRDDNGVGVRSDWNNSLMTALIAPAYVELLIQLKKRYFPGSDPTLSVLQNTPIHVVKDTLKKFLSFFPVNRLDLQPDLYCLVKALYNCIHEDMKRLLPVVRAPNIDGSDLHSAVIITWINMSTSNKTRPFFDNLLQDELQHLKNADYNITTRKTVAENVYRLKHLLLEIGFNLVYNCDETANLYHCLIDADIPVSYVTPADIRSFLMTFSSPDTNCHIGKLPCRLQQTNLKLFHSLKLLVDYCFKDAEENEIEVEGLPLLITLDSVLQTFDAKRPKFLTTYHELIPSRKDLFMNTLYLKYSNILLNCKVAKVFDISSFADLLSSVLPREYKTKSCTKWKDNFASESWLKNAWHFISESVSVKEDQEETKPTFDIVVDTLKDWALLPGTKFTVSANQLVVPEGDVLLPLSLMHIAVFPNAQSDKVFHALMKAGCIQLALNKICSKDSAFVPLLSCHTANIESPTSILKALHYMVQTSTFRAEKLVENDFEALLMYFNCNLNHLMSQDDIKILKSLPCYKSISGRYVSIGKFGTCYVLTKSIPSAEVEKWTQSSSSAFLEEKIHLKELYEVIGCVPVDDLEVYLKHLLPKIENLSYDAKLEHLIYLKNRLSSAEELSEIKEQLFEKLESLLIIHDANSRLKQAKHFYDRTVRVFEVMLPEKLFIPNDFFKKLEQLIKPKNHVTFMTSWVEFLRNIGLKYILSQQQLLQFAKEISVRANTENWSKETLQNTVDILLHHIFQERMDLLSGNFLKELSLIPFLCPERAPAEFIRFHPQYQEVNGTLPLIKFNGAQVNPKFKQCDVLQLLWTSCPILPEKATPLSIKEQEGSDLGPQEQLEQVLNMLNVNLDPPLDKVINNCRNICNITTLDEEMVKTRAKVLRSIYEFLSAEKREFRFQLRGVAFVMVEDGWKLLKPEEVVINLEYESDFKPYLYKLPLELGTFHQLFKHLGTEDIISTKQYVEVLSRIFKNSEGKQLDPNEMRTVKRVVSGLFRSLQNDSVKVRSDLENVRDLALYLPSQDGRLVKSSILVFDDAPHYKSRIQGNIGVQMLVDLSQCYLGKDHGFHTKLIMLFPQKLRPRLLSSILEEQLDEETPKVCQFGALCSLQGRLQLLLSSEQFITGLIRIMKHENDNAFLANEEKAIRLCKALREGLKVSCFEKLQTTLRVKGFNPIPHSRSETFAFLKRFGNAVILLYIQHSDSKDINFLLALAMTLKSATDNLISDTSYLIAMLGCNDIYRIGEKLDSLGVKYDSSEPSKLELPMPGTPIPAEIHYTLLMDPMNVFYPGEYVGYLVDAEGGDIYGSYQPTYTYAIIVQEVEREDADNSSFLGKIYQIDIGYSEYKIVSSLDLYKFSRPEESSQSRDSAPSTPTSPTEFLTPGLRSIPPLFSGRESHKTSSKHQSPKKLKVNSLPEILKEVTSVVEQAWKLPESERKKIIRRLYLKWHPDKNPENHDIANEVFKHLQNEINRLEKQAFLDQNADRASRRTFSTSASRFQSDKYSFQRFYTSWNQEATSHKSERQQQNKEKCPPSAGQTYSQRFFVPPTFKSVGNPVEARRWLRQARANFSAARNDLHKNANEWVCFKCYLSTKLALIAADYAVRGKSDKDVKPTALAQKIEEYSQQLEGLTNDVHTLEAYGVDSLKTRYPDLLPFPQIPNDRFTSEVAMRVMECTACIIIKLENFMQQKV
UniProt P08670: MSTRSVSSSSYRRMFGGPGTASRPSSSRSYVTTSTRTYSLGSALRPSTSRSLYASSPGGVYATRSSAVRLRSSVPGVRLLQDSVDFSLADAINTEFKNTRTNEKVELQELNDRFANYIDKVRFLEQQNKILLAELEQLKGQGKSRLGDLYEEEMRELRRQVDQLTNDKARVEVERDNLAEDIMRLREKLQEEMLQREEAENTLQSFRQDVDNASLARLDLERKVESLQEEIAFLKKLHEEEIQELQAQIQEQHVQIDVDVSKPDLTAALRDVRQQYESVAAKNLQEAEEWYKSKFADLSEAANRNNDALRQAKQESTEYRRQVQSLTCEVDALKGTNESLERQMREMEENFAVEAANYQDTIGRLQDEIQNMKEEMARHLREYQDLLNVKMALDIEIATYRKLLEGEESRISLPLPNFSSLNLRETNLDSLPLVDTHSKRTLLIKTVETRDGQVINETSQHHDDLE

Key:
Assay in all cases: co-IP
[1] = molecular target: sacsin (human (endogenous in SH-SY5Y)) (UniProt Q9NZJ4)
[2] = molecular target: T1, neurofascin (human (endogenous in SH-SY5Y)) (UniProt O94856)
T1 sequence: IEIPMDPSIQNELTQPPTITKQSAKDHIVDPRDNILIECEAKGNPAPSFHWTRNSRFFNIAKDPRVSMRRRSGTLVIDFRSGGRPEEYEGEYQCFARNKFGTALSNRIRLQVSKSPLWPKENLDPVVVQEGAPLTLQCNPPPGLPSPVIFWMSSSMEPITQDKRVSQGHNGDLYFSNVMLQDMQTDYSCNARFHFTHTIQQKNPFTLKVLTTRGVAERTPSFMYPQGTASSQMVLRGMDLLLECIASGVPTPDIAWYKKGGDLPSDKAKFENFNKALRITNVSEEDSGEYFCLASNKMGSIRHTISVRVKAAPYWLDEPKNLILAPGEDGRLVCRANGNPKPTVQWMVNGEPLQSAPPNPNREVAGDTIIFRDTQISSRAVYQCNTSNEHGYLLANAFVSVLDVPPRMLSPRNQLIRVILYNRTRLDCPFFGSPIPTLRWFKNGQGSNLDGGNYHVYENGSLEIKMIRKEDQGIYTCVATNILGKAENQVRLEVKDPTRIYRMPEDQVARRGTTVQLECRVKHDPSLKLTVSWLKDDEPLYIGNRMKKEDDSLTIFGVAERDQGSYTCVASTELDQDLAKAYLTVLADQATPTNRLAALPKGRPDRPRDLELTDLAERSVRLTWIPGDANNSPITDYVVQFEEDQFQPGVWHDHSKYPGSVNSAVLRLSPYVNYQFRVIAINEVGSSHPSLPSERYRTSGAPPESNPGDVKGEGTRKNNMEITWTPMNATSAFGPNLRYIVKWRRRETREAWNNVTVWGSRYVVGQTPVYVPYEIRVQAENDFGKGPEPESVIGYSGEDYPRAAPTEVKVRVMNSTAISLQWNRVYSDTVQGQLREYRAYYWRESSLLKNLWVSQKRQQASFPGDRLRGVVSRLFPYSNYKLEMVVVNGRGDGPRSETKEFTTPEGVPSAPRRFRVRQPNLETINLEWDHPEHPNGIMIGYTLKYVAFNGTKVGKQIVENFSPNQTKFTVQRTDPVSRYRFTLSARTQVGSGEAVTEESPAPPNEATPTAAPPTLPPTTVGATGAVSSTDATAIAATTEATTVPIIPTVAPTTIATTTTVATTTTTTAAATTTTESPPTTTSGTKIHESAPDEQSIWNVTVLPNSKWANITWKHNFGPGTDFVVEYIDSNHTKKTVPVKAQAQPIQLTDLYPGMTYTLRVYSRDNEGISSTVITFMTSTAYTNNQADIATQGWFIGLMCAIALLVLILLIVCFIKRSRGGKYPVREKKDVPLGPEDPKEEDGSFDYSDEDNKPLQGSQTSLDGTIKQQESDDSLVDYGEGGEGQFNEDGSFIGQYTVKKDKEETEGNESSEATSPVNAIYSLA

[3] = molecular target: vimentin (human (endogenous in SH-SY5Y)) (UniProt P08670)

Measured: binding

vinculin (from UniProt P18206-2)
binds: all assays above
